# Values from PubChem BioAssay AID504793 (Drosophila RNAi Screening Center, 2011)
# Screen: 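Whole-genome screen for parts of the DNA damage checkpoint at G2/M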 (primary screen)
# Cells: Drosophila S2R+ cells
# Reagent: long dsRNA against Drosophila genes, about 0.25 µg dsRNA per well
# Duration: 4 days of dsRNA, then 4 hours of drug before read-out
# Treatment: doxorubicin 0.5 µM for 4 hours to cause double-strand breaks, in cells also given a low, harmless dose of dsRNA against nbs to sensitise the assay
# Measured: 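Per-well count of mitotic cells stained for phospho-histone H3 after doxorubicin exposure, used as mitotic index; counts are raw and not normalised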
# Scale: mitotic cells: higher = more cells in mitosis, weaker G2 arrest
# Hit rule: 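a call needs confirmation in secondary tests, with other dsRNAs and a check of mitotic timing without damage, not just a high primary count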
# Calls: active = confirmed in follow-up tests; inactive = not confirmed
# In all, the deposit lists about 23,000 reagents; shown is a random part of those that have a named target and a result. Over the whole deposit, 62 (0.27%) got an active call. 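Calls come from follow-up tests whose scores are not deposited, so confirmed genes may have low counts here; counts are not normalised per plate.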 Raw values are not corrected between plates. Names joined by + are all predicted targets of the reagent.
Target gene,PubChem SID,"mitotic cells, replicate 1",call
Ir67c,SID104201667,8,inactive
tok,SID104196879,5,inactive
tok,SID104216715,10,inactive
CG14450,SID104191499,3,inactive
CG14450,SID104207986,8,inactive
CG32588,SID104201801,9,inactive
Hrs,SID104180341,5,inactive
Hrs,SID104206285,3,inactive
CG13965,SID104182099,2,inactive
CG14624,SID104198426,10,inactive
CG14624,SID104203799,10,inactive
LysB,SID104188465,4,inactive
Eig71Ej,SID104190949,5,inactive
Eig71Ej,SID104206768,6,inactive
Ir94g,SID104195023,9,inactive
Ir94g,SID104206338,6,inactive
nau,SID104196803,12,inactive
CG11585,SID104199202,13,inactive
CG11585,SID104205930,7,inactive
Vha16-3,SID104190664,5,inactive
Vha16-3,SID104204058,9,inactive
Df31,SID104183530,3,inactive
Df31,SID104201710,11,inactive
Cth,SID104187214,5,inactive
CG5783,SID104182686,6,inactive
Pdcd4,SID104199152,11,inactive
CG4770,SID104195431,11,inactive
Had1,SID104200008,13,inactive
CG3651,SID104183522,7,inactive
Slh,SID104180581,8,inactive
Or59c,SID104184425,4,inactive
CG32988,SID104182484,2,inactive
CG7786,SID104186837,3,inactive
CG7786,SID104205148,2,inactive
CG14095,SID104189890,3,inactive
Phf5a,SID104183053,25,inactive
Ir68b,SID104190043,2,inactive
Aldh7A1,SID104190875,7,inactive
Rpp14b,SID104194855,17,inactive
Trm7-34,SID104195963,12,inactive
pnut,SID104187458,4,inactive
pnut,SID104202968,8,inactive
Kaz1-ORFB + Kaz1-ORFA,SID104188461,10,inactive
DCTN5-p25,SID104183317,21,inactive
DCTN5-p25,SID104205411,14,inactive

Sorted by “mitotic cells, replicate 1” (high to low): some entries from above.
Target gene,PubChem SID,"mitotic cells, replicate 1",call
Rpp14b,SID104194855,17,inactive
Trm7-34,SID104195963,12,inactive
Aldh7A1,SID104190875,7,inactive
Ir68b,SID104190043,2,inactive
